Data as given in PMC12440826, “Shigella flexneri evades LPS ubiquitylation through IpaH1.4-mediated degradation of RNF213” (Nature Structural & Molecular Biology, 2025).
No constants are given. Whether binding was seen depends on the method and setting. In cells and extracts the contact can be indirect. Binding can be weak; no strength is given.

Sequences of proteins named here, by UniProt entry; tags and fusion partners are left off.
UniProt Q63HN8: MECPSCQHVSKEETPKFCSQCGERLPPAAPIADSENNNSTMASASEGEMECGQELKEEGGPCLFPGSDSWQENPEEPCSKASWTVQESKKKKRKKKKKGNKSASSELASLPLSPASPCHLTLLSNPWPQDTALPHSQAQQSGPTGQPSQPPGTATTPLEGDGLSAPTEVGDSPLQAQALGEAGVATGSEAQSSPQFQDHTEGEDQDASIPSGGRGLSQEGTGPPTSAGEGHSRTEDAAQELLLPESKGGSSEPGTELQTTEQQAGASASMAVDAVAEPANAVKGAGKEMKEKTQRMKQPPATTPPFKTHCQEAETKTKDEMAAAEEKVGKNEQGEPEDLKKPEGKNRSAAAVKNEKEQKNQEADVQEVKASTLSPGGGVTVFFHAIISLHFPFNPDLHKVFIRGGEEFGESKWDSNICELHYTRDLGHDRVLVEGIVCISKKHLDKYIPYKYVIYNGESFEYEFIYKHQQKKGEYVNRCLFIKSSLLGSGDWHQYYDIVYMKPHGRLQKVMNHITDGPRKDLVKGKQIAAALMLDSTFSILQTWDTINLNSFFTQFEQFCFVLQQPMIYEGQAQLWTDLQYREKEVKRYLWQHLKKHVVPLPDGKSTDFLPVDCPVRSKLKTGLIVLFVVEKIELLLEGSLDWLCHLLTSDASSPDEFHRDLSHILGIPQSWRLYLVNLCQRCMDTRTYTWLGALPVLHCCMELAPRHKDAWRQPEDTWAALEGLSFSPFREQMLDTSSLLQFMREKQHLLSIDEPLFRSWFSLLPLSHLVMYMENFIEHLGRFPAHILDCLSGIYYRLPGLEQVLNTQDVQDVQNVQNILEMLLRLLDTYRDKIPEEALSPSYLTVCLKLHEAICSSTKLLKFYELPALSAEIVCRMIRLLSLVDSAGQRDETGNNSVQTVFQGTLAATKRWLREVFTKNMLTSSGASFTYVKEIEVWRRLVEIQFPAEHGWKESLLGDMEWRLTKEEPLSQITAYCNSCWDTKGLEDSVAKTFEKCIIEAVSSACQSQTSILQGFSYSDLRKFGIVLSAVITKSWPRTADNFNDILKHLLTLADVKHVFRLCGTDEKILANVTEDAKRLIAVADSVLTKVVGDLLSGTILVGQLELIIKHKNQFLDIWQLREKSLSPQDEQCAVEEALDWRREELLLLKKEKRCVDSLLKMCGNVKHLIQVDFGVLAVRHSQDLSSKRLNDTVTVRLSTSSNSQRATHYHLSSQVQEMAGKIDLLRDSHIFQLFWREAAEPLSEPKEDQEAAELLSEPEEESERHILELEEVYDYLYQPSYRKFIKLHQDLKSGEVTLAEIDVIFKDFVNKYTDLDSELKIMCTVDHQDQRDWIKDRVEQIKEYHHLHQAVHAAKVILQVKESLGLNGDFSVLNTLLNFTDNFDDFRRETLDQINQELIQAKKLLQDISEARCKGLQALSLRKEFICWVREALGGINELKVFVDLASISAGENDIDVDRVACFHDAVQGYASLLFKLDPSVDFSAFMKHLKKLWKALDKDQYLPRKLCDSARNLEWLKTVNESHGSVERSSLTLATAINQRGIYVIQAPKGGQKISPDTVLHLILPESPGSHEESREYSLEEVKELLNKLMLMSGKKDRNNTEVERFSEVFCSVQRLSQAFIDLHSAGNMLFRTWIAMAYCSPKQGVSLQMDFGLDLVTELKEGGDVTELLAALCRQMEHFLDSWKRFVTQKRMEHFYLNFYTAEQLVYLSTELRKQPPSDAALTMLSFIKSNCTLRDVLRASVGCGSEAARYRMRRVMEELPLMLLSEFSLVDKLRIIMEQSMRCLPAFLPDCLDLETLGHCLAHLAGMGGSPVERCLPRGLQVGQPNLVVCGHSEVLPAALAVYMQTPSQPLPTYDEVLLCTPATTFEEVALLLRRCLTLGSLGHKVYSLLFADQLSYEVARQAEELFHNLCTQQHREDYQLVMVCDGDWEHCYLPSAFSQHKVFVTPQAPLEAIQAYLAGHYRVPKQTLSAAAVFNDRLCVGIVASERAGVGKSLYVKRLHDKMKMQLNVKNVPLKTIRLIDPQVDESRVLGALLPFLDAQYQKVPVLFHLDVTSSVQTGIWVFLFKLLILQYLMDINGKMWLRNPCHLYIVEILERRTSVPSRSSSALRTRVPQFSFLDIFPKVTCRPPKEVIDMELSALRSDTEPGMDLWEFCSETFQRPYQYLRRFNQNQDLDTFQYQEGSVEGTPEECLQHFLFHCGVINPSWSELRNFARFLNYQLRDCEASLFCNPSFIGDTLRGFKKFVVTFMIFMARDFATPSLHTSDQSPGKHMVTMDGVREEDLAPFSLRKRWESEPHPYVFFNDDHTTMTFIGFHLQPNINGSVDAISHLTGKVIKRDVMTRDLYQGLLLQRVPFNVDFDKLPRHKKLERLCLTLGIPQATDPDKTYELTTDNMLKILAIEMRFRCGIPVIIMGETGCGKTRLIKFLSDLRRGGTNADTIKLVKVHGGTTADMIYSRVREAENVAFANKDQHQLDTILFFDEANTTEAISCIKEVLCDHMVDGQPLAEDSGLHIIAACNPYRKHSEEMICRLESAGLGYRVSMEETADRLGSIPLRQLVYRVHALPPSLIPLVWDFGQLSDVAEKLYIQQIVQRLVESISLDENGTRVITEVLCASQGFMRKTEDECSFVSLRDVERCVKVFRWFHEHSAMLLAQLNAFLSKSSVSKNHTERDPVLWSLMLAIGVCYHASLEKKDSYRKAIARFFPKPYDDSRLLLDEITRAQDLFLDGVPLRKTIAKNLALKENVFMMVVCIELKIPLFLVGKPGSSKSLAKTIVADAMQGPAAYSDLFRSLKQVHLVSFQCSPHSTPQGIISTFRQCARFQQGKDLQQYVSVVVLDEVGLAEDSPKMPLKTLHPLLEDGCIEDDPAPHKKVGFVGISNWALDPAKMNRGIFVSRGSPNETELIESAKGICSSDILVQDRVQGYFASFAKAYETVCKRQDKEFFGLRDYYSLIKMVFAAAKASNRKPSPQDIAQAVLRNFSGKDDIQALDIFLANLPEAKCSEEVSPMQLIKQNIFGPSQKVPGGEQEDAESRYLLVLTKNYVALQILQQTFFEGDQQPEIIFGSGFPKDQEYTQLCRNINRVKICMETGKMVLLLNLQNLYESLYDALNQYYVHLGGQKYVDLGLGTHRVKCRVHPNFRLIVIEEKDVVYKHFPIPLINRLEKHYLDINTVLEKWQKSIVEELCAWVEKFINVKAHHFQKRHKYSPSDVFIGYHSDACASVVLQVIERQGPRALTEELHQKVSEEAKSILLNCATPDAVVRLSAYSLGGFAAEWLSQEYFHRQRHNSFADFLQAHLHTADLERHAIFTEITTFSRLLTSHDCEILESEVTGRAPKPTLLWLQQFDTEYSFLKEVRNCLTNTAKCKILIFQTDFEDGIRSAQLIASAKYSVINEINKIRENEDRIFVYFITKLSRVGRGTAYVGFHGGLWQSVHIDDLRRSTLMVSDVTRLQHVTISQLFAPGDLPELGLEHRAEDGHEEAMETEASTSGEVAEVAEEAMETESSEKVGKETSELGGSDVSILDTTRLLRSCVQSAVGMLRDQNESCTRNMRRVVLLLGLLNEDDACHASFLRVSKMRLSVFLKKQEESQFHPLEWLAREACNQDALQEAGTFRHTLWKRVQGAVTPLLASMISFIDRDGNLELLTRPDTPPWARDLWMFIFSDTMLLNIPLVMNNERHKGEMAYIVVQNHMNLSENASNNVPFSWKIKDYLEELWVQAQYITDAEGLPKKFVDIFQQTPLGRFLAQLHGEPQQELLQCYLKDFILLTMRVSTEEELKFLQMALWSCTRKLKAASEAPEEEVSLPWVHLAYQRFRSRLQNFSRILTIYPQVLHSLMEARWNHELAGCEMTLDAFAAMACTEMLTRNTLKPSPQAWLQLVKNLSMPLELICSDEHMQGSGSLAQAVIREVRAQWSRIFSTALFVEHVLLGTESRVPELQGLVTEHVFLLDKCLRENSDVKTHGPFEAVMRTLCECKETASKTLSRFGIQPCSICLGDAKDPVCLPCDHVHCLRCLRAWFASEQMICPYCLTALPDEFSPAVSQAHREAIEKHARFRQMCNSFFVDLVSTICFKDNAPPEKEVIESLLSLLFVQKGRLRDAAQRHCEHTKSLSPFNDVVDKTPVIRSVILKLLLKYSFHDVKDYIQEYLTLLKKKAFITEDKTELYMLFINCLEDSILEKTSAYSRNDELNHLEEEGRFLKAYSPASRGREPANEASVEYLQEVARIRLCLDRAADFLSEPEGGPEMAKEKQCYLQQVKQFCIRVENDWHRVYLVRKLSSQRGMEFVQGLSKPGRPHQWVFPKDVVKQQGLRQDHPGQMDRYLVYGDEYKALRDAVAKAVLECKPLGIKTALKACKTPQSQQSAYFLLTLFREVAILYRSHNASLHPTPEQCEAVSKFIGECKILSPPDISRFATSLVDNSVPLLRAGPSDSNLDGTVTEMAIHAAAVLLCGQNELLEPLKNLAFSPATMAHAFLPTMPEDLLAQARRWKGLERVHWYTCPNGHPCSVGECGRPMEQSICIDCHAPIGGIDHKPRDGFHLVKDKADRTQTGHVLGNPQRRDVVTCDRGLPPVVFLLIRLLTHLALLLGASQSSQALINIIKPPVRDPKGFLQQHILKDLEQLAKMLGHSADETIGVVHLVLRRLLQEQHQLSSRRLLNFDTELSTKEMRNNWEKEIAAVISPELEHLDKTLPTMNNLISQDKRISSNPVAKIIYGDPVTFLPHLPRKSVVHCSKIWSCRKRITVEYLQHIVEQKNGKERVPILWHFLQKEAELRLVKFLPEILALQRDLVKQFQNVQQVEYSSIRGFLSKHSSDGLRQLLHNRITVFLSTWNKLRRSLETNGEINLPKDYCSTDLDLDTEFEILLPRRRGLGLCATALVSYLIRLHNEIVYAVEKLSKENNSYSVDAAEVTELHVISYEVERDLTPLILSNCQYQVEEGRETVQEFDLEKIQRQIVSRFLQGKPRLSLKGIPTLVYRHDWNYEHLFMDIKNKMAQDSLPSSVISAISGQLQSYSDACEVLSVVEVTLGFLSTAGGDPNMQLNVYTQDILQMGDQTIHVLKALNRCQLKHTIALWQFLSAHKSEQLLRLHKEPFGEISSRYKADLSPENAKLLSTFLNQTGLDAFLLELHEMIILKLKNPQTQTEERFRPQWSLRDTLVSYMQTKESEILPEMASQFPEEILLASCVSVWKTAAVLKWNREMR

Target: GST–IpaH1.4 (WT, for the binding-mutant pull-downs) (S. flexneri)
Test: pull-down; bacterial lysate with overexpressed GST–IpaH1.4 (WT or binding mutants) applied to GST–Sepharose resin; 293ET lysates with Flag–GFP–RNF213 (WT or binding mutants); washed beads boiled in Laemmli buffer, immunoblot

Q: Which binding does the source give for “Flag–GFP–RNF213 (WT) (from UniProt Q63HN8 1-5207) (enzyme)” here?
A: Its binding is “binds”.
